From article PMC10534228
These are yes or no findings as the source states them, for the method shown. For some of these results: In cells and extracts the contact can be indirect. Some binding calls cover weakened binding; strength is not graded here.

By UniProt entry, the sequences of proteins in these tests, tags left out.
UniProt O54943: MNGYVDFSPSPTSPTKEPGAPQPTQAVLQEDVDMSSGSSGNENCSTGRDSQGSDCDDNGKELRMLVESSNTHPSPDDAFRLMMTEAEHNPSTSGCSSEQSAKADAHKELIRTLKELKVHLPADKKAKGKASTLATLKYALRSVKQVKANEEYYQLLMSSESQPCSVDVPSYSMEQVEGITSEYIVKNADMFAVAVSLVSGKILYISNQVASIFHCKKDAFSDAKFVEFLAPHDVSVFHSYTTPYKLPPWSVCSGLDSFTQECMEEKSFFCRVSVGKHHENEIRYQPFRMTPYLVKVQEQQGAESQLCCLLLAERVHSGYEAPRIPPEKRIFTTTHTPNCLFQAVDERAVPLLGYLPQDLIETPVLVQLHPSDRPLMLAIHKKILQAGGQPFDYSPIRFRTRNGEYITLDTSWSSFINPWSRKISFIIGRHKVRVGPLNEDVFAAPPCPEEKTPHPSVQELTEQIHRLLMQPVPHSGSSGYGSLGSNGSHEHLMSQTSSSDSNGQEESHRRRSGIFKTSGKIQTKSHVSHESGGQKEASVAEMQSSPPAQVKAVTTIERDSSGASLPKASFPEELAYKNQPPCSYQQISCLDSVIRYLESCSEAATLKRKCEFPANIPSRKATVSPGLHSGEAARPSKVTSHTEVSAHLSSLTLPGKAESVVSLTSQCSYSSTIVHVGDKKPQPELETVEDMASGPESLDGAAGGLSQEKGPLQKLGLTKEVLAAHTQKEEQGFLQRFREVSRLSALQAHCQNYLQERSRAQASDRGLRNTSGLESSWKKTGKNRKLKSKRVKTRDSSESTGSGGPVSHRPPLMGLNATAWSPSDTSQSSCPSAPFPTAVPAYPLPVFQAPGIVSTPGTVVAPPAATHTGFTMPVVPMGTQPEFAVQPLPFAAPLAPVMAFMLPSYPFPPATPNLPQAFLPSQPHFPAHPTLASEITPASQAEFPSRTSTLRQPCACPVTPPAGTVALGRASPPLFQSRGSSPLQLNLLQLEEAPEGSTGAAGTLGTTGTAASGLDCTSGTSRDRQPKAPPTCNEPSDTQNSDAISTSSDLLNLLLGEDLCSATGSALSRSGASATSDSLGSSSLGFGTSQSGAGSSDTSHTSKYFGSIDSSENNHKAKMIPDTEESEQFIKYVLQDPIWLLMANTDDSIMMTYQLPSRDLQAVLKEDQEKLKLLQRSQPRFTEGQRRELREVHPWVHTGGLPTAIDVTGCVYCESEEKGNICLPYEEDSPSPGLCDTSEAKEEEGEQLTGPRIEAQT
UniProt Q04207: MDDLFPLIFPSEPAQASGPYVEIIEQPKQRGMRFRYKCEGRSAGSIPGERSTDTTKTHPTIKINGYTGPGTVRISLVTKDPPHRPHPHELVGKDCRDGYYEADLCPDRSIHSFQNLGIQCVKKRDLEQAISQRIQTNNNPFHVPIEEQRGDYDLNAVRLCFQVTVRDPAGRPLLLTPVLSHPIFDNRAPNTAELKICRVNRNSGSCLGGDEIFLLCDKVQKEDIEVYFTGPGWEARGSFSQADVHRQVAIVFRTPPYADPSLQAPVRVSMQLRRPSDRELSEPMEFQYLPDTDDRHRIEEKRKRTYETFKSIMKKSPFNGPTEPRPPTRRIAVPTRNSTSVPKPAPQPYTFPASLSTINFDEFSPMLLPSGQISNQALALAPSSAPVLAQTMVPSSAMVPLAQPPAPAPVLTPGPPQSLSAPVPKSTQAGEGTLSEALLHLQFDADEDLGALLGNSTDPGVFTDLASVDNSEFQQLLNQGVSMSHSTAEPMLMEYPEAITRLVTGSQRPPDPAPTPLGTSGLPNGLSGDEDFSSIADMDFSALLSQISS

Assays:
[1] = molecular target: PER2 (Period2) (mouse (endogenous in BMDMs, rectal LPLs and NIH3T3)) (UniProt O54943); assay: co-IP; lysates of rectal LPLs of WT and Per2-/- mice; IP with anti-PER2 or anti-p65, immunoblot with anti-PER2 or anti-p65
[2] = molecular target: NF-κB p65 (mouse (endogenous in BMDMs and rectal LPLs)) (UniProt Q04207); assay: as above
[3] = molecular target: NF-κB p65 (mouse (endogenous in BMDMs and rectal LPLs)) (UniProt Q04207); assay: ChIP-reChIP; formaldehyde-crosslinked chromatin of BMDMs from WT mice, with or without LPS for 24 h; p65 and PER2 on the Gys1 promoter, read by PCR and qPCR
[4] = molecular target: NF-κB p65 (mouse (endogenous in BMDMs and rectal LPLs)) (UniProt Q04207); assay: co-IP; nuclear (nucleoprotein) extracts of BMDMs from WT mice, with or without LPS stimulation; non-denaturing lysis buffer (20 mM Tris-HCl pH 8.0, 137 mM NaCl, 2 mM EDTA, 1% NP-40); antibody overnight at 4 °C, Protein G-sepharose; Western blot

| Substance | binding [1] | binding [2] | binding [3] | binding [4] |
| --- | --- | --- | --- | --- |
| NF-κB p65 (from UniProt Q04207 1-549) | binds | – | – | – |
| PER2 (Period2) (from UniProt O54943 1-1257) | – | binds | binds | binds |
